The values below come from patent US20150315270A1 (CONSEJO NACIONAL DE INVESTIGATION CIENTIFICA, published 2015).

In the test the target is T1, human VEGF-B186 (human, UniProt P49765 22-207).
T1 construct: also called Vascular endothelial growth factor antigen B
T1 sequence: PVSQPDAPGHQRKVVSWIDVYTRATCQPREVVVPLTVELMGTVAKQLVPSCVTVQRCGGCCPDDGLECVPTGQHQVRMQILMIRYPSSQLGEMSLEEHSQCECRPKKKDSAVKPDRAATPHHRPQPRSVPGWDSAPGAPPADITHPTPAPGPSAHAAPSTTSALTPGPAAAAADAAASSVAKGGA
The test is described as follows: SPR, Biacore T100. (Surface plasmon resonance follows binding to a sensor surface in real time, without labels.)

Results are given in words; binding and its absence hold for the method and conditions named. Some binding calls cover weakened binding; strength is not graded here.

B1: mMcA-AB1-anti-VEGF-A (mouse monoclonal antibody A-AB1-anti-VEGF-A) (antibody, V domains shown)
VH: QVKLLESGPELKKPGETVKISCKASGYTFTNFGMNWVKQAPGKGLKWMGWINTNTGEPTYVDDFKGRFAFSLETSASSAYLQISNLNNEDTATYFCARYYGSTSVWYFDVWGAGTTVTVSS
VL: ELVMTQTPSSLSASLGDRVTITCRASQDIFNYLNWYQQKPDGPIKLLIYYSSRLHSGVPSRFSGSGSGTDYSLTISNLDREDIATYFCQQGFTLPWTFGGGTKLEIKR
notes: also called mMc-AB1-anti-VEGF-A; mouse AB1 antibody
On to B1, for which the binding entry is reported as “binds”.
